Data from patent US20110269141A1, “TARGET PROTEIN AND TARGET GENE FOR DRUG DISCOVERY, AND SCREENING METHOD” (REVERSE PROTEOMICS RESEARCH INSTITUTE CO., LTD., priority 2007, published 2011).
At least one compound was matched to its structure with a doubt left.

Chains of the proteins cited; added tags and fusions are not shown. Lines headed by an entry give the natural chain unless they say otherwise; changes in a name come on top.
UniProt O15355: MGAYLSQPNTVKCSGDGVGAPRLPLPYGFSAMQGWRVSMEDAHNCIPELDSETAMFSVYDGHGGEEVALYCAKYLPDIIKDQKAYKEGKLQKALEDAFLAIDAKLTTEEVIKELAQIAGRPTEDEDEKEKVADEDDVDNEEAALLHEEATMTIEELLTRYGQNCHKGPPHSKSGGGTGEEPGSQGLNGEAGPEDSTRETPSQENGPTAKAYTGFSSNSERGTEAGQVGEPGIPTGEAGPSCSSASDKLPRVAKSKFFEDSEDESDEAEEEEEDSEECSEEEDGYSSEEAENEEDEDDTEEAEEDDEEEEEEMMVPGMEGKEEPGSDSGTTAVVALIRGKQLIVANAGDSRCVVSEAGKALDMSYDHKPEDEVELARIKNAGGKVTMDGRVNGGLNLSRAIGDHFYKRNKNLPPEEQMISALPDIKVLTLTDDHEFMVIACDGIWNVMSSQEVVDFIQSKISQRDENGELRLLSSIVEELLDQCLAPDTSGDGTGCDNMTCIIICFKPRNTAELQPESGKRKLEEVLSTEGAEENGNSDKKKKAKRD
UniProt P07195, whole entry: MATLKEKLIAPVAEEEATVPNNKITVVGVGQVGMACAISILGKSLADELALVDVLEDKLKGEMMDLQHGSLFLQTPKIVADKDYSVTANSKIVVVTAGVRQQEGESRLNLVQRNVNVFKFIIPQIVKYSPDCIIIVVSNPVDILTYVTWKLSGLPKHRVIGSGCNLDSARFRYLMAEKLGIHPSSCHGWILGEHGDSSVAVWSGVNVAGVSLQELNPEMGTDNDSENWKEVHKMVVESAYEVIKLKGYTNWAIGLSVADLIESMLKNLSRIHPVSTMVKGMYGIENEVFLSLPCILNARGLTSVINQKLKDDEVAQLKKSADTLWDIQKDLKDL

Columns and labels:
Test in all cases: SEC-MS interaction analysis
Format in all cases: binding
FLJ46369 (SEQ ID NO:53) = molecular target: T1, FLJ46369 (SEQ ID NO:53) (Homo sapiens, UniProt Q6ZRG5); conditions: Minerals (+)
T1 sequence (Q6ZRG5 1-221): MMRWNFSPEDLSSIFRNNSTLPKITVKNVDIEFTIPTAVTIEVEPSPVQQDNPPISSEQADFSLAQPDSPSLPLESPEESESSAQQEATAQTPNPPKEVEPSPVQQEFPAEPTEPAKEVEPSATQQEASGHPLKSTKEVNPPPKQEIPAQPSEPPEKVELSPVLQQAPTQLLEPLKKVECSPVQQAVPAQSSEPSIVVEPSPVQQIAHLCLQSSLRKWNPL

FLJ25845 (SEQ ID NO:36) = molecular target: T2, FLJ25845 (SEQ ID NO:36) (Homo sapiens, UniProt Q5W041); conditions: Minerals (+)
T2 construct: A human full-length cDNA clone was expressed as a protein with an N-terminal His tag; made in house; host or cells: Escherichia coli BL21star(DE3)pLysS (pDEST17)
T2 sequence (Q5W041 505-872): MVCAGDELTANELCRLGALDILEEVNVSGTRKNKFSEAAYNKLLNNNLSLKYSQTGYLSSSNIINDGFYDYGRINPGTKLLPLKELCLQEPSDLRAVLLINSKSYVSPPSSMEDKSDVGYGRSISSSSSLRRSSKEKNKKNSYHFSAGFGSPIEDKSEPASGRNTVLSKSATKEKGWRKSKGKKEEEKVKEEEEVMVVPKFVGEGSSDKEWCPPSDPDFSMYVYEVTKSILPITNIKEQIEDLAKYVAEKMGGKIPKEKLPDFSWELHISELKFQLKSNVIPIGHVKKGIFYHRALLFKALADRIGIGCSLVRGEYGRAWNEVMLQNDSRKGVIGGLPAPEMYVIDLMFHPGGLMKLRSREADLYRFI

FLJ45688 (SEQ ID NO:23) = molecular target: T3, FLJ45688 (SEQ ID NO:23) (Homo sapiens, UniProt O15355, DEL20-36/V37F)
T3 construct: proteins expressed from human full-length cDNA clones; His tag (N); made in house; host or cells: Escherichia coli BL21star(DE3)pLysS (pDEST17)
T3 sequence (O15355 with tags, fused parts or gaps DEL20-36/V37F): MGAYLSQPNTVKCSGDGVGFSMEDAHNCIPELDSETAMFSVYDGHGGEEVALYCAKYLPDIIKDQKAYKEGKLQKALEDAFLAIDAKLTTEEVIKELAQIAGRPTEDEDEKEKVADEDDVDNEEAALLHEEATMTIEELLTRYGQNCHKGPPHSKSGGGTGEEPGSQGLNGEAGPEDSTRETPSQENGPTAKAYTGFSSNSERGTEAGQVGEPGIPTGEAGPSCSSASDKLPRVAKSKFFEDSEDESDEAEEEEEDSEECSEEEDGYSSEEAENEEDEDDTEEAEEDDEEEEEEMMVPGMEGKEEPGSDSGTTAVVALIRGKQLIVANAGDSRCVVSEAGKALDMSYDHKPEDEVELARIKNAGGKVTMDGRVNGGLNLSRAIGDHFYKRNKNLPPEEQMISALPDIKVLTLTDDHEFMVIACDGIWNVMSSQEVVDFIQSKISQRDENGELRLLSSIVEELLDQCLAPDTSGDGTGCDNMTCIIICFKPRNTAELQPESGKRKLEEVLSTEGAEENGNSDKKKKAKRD

FLJ26371 (SEQ ID NO:22) = molecular target: T4, FLJ26371 (SEQ ID NO:22) (Homo sapiens, UniProt P07195)
T4 construct: proteins expressed from human full-length cDNA clones; His tag (N); made in house; host or cells: Escherichia coli BL21star(DE3)pLysS (pDEST17)

Question: For `CC(O)(CS(=O)(=O)c1ccc(F)cc1)C(=O)Nc1ccc(C#N)c(C(F)(F)F)c1` (centres unmarked) [Bicalutamide], which “SEC-MS spectral intensity of compound” value (FLJ46369 (SEQ ID NO:53); compound 1 uM, protein 0 uM) is on record?
Answer: 0.0

Question: And the “SEC-MS spectral intensity of compound” value (FLJ46369 (SEQ ID NO:53); compound 1 uM, protein 23.8 uM)?
Answer: 0.0

Question: And the “SEC-MS spectral intensity of compound” value (FLJ46369 (SEQ ID NO:53); compound 10 uM, protein 0 uM)?
Answer: 0.2

Question: And the “SEC-MS spectral intensity of compound” value (FLJ46369 (SEQ ID NO:53); compound 10 uM, protein 23.8 uM)?
Answer: 0.2

Question: What about the “SEC-MS spectral intensity of compound” value (FLJ46369 (SEQ ID NO:53); compound 100 uM, protein 0 uM) of the same compound?
Answer: 1.5

Question: And the “SEC-MS spectral intensity of compound” value (FLJ46369 (SEQ ID NO:53); compound 100 uM, protein 23.8 uM)?
Answer: 5.1

Question: And the “SEC-MS spectral intensity of compound” value (FLJ46369 (SEQ ID NO:53); compound 250 uM, protein 0 uM)?
Answer: 0.6

Question: And the “SEC-MS spectral intensity of compound” value (FLJ46369 (SEQ ID NO:53); compound 250 uM, protein 23.8 uM)?
Answer: 17.5

Question: How did the SEC-MS compound signal (FLJ25845 (SEQ ID NO:36); protein 0 uM, compound 1 uM) turn out when `CC[C@H]1CN2CCc3cc(OC)c(OC)cc3[C@@H]2C[C@@H]1C[C@H]1NCCc2cc(O)c(OC)cc21` [cephaeline] was run?
Answer: 0.1

Question: And the SEC-MS compound signal (FLJ25845 (SEQ ID NO:36); protein 0 uM, compound 10 uM)?
Answer: 0.3

Question: And the SEC-MS compound signal (FLJ25845 (SEQ ID NO:36); protein 0 uM, compound 100 uM)?
Answer: 2.9

Question: What about the SEC-MS compound signal (FLJ25845 (SEQ ID NO:36); protein 0 uM, compound 250 uM) of the same compound?
Answer: 9.7

Question: And the SEC-MS compound signal (FLJ25845 (SEQ ID NO:36); protein 23.8 uM, compound 1 uM)?
Answer: 0.1

Question: What about the SEC-MS compound signal (FLJ25845 (SEQ ID NO:36); protein 23.8 uM, compound 10 uM) of the same compound?
Answer: 0.6

Question: What about the SEC-MS compound signal (FLJ25845 (SEQ ID NO:36); protein 23.8 uM, compound 100 uM) of the same compound?
Answer: 3.8

Question: What about the SEC-MS compound signal (FLJ25845 (SEQ ID NO:36); protein 23.8 uM, compound 250 uM) of the same compound?
Answer: 14.4

Question: Which results are given for `Cc1cc2c(C(C)C)c(O)c(O)c(C=O)c2c(O)c1-c1c(C)cc2c(C(C)C)c(O)c(O)c(C=O)c2c1O` [gossypol]?
Answer: MS signal of compound after SEC (measured mass range) (FLJ45688 (SEQ ID NO:23); Minerals (+), compound 1 uM, protein 0 uM): −0.4; MS signal of compound after SEC (measured mass range) (FLJ45688 (SEQ ID NO:23); Minerals (+), compound 1 uM, protein 23.8 uM): 0.0; MS signal of compound after SEC (measured mass range) (FLJ45688 (SEQ ID NO:23); Minerals (+), compound 10 uM, protein 0 uM): −0.5; MS signal of compound after SEC (measured mass range) (FLJ45688 (SEQ ID NO:23); Minerals (+), compound 10 uM, protein 23.8 uM): 0.1; MS signal of compound after SEC (measured mass range) (FLJ45688 (SEQ ID NO:23); Minerals (+), compound 100 uM, protein 0 uM): −0.2; MS signal of compound after SEC (measured mass range) (FLJ45688 (SEQ ID NO:23); Minerals (+), compound 100 uM, protein 23.8 uM): 17.7; MS signal of compound after SEC (measured mass range) (FLJ45688 (SEQ ID NO:23); Minerals (+), compound 250 uM, protein 0 uM): −0.3; MS signal of compound after SEC (measured mass range) (FLJ45688 (SEQ ID NO:23); Minerals (+), compound 250 uM, protein 23.8 uM): 52.2; MS signal of compound after SEC (measured mass range) (FLJ45688 (SEQ ID NO:23); Minerals (−), compound 1 uM, protein 0 uM): 0.0; MS signal of compound after SEC (measured mass range) (FLJ45688 (SEQ ID NO:23); Minerals (−), compound 1 uM, protein 23.8 uM): 0.1; MS signal of compound after SEC (measured mass range) (FLJ45688 (SEQ ID NO:23); Minerals (−), compound 10 uM, protein 0 uM): 0.0; MS signal of compound after SEC (measured mass range) (FLJ45688 (SEQ ID NO:23); Minerals (−), compound 10 uM, protein 23.8 uM): 0.6; MS signal of compound after SEC (measured mass range) (FLJ45688 (SEQ ID NO:23); Minerals (−), compound 100 uM, protein 0 uM): 0.1; MS signal of compound after SEC (measured mass range) (FLJ45688 (SEQ ID NO:23); Minerals (−), compound 100 uM, protein 23.8 uM): 20.0; MS signal of compound after SEC (measured mass range) (FLJ45688 (SEQ ID NO:23); Minerals (−), compound 250 uM, protein 0 uM): 0.2; MS signal of compound after SEC (measured mass range) (FLJ45688 (SEQ ID NO:23); Minerals (−), compound 250 uM, protein 23.8 uM): 116.3

Question: How did the “compound signal in measured mass range (SEC-MS)” value (shortened to “compound signal … (SEC-MS)”) (FLJ26371 (SEQ ID NO:22); Minerals (+), protein 0 uM, compound 1 uM) turn out when `Cc1[nH]ccc2c1[nH]c1cc(=O)ccc12` [harmol] was run?
Answer: −0.4

Question: And the “compound signal … (SEC-MS)” value (FLJ26371 (SEQ ID NO:22); Minerals (+), protein 0 uM, compound 10 uM)?
Answer: −0.5

Question: What about the “compound signal … (SEC-MS)” value (FLJ26371 (SEQ ID NO:22); Minerals (+), protein 0 uM, compound 100 uM) of the same compound?
Answer: 0.0

Question: And the “compound signal … (SEC-MS)” value (FLJ26371 (SEQ ID NO:22); Minerals (+), protein 0 uM, compound 250 uM)?
Answer: −0.1

Question: And the “compound signal … (SEC-MS)” value (FLJ26371 (SEQ ID NO:22); Minerals (+), protein 23.8 uM, compound 1 uM)?
Answer: −0.4

Question: And the “compound signal … (SEC-MS)” value (FLJ26371 (SEQ ID NO:22); Minerals (+), protein 23.8 uM, compound 10 uM)?
Answer: −0.3

Question: What about the “compound signal … (SEC-MS)” value (FLJ26371 (SEQ ID NO:22); Minerals (+), protein 23.8 uM, compound 100 uM) of the same compound?
Answer: −0.6

Question: And the “compound signal … (SEC-MS)” value (FLJ26371 (SEQ ID NO:22); Minerals (+), protein 23.8 uM, compound 250 uM)?
Answer: −0.3

Question: And the “compound signal … (SEC-MS)” value (FLJ26371 (SEQ ID NO:22); Minerals (+), protein 47.5 uM, compound 1 uM)?
Answer: 0.2

Question: And the “compound signal … (SEC-MS)” value (FLJ26371 (SEQ ID NO:22); Minerals (+), protein 47.5 uM, compound 10 uM)?
Answer: 0.0

Question: And the “compound signal … (SEC-MS)” value (FLJ26371 (SEQ ID NO:22); Minerals (+), protein 47.5 uM, compound 100 uM)?
Answer: 1.7

Question: What about the “compound signal … (SEC-MS)” value (FLJ26371 (SEQ ID NO:22); Minerals (+), protein 47.5 uM, compound 250 uM) of the same compound?
Answer: 5.4

Question: And the “compound signal … (SEC-MS)” value (FLJ26371 (SEQ ID NO:22); Minerals (−), protein 0 uM, compound 1 uM)?
Answer: −1.3

Question: What about the “compound signal … (SEC-MS)” value (FLJ26371 (SEQ ID NO:22); Minerals (−), protein 0 uM, compound 10 uM) of the same compound?
Answer: −1.6

Question: What about the “compound signal … (SEC-MS)” value (FLJ26371 (SEQ ID NO:22); Minerals (−), protein 0 uM, compound 100 uM) of the same compound?
Answer: −1.3

Question: What about the “compound signal … (SEC-MS)” value (FLJ26371 (SEQ ID NO:22); Minerals (−), protein 0 uM, compound 250 uM) of the same compound?
Answer: −1.2

Question: What about the “compound signal … (SEC-MS)” value (FLJ26371 (SEQ ID NO:22); Minerals (−), protein 23.8 uM, compound 1 uM) of the same compound?
Answer: 0.2

Question: And the “compound signal … (SEC-MS)” value (FLJ26371 (SEQ ID NO:22); Minerals (−), protein 23.8 uM, compound 10 uM)?
Answer: 0.1

Question: What about the “compound signal … (SEC-MS)” value (FLJ26371 (SEQ ID NO:22); Minerals (−), protein 23.8 uM, compound 100 uM) of the same compound?
Answer: 2.0

Question: What about the “compound signal … (SEC-MS)” value (FLJ26371 (SEQ ID NO:22); Minerals (−), protein 23.8 uM, compound 250 uM) of the same compound?
Answer: 1.0

Question: And the “compound signal … (SEC-MS)” value (FLJ26371 (SEQ ID NO:22); Minerals (−), protein 47.5 uM, compound 1 uM)?
Answer: 0.0

Question: What about the “compound signal … (SEC-MS)” value (FLJ26371 (SEQ ID NO:22); Minerals (−), protein 47.5 uM, compound 10 uM) of the same compound?
Answer: 0.2

Question: What about the “compound signal … (SEC-MS)” value (FLJ26371 (SEQ ID NO:22); Minerals (−), protein 47.5 uM, compound 100 uM) of the same compound?
Answer: 2.0

Question: What about the “compound signal … (SEC-MS)” value (FLJ26371 (SEQ ID NO:22); Minerals (−), protein 47.5 uM, compound 250 uM) of the same compound?
Answer: 4.0
